Measurements as given in the supplement of paper PMC6078165.
The reference is the same well before dosing, and untreated signal decays as well.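 Fibroblast labels denote human fibroblasts, mainly primary ones from uterus (C12385, HUF), lung (H6013), bone (Hs27A), adrenal (HADF) and skin (WS1), plus mammary HMF and breast cancer-associated Hs343T. Cancer cells are basal-like or mesenchymal-like triple-negative breast cancer lines. A hit is a response shift exceeding 3x replicate standard deviation. The tissue of the other fibroblasts is not given here.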

Test system: MDAMB231
Assay: relative JC-1 red fluorescence (viability) vs pre-drug, coculture with fibroblast (fraction); higher = more viable cancer cells
Settings: 1 µM
Protocol: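 JC-1 labelled TNBC cells cocultured 1:1 (1,500 cells each) with CellTrace Violet stained primary or stromal fibroblasts in 384-well plates in FluoroBrite medium, treated with one of 42 anticancer drugs at 0.1, 1, 10 or 100 uM. JC-1 red fluorescence (mitochondrial integrity in cancer cells only) was read by plate reader every 8 h for 72 h. Values are normalised to each well's pre-drug value. The stock of one drug was tenfold lower, so its dose labels may be too high.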

N#Cc1ccc(C(c2ccc(C#N)cc2)n2cncn2)cc1 [Letrozole]
relative JC-1 red fluorescence
Settings | 8 h | 16 h | 24 h | 32 h | 40 h | 48 h | 56 h | 64 h | 72 h
coculture fibroblast: C12385 | 0.766 | 0.716 | 0.679 | 0.61 | 0.545 | 0.523 | 0.4853 | 0.483 | 0.466
coculture fibroblast: H6013 | 0.897 | 0.812 | 0.76118 | 0.748 | 0.7 | 0.679 | 0.665 | 0.642 | 0.59
coculture fibroblast: H6019 | 0.729 | 0.639 | 0.647 | 0.575 | 0.538 | 0.5263 | 0.489 | 0.4789 | 0.436
coculture fibroblast: H6076 | 0.862 | 0.774 | 0.729 | 0.711 | 0.681 | 0.656 | 0.643 | 0.6372 | 0.625
coculture fibroblast: H6231 | 0.932 | 0.8425 | 0.755 | 0.712 | 0.649 | 0.614 | 0.563 | 0.539 | 0.511
coculture fibroblast: HADF | 0.8838 | 0.8468 | 0.781 | 0.759 | 0.715 | 0.68534 | 0.6533 | 0.619 | 0.5723
coculture fibroblast: HCFa | 0.916 | 0.841 | 0.801 | 0.778 | 0.725 | 0.673 | 0.648 | 0.604 | 0.546
coculture fibroblast: HCPF | 0.866 | 0.775 | 0.701 | 0.673 | 0.618 | 0.579 | 0.536 | 0.512 | 0.491
coculture fibroblast: HHSteC | 0.9 | 0.848 | 0.809 | 0.749 | 0.713 | 0.684 | 0.641 | 0.622 | 0.568
coculture fibroblast: HMF | 0.9043 | 0.8029 | 0.715 | 0.678 | 0.612 | 0.569 | 0.5238 | 0.49965 | 0.4742
coculture fibroblast: HPFa | 0.946 | 0.905 | 0.864 | 0.801 | 0.772 | 0.739 | 0.679 | 0.648 | 0.592
coculture fibroblast: HUF | 0.8363 | 0.7298 | 0.739 | 0.591 | 0.533 | 0.5154 | 0.4653 | 0.461 | 0.444
coculture fibroblast: Hs5 | 0.873 | 0.788 | 0.734 | 0.677 | 0.63 | 0.581 | 0.533 | 0.509 | 0.47
coculture fibroblast: Hs27A | 0.8654 | 0.8088 | 0.782 | 0.758 | 0.716 | 0.6681 | 0.65512 | 0.6326 | 0.569
coculture fibroblast: Hs343T | 0.889 | 0.779 | 0.692 | 0.653 | 0.587 | 0.528 | 0.469 | 0.442 | 0.41
coculture fibroblast: WS1 | 0.756 | 0.6823 | 0.6232 | 0.5714 | 0.522 | 0.489 | 0.446 | 0.429 | 0.402
